Here are results for three molecules from doi:10.1101/2020.12.21.423430.

The chains behind the UniProt entries cited, without tags or fusion partners.
UniProt P29514: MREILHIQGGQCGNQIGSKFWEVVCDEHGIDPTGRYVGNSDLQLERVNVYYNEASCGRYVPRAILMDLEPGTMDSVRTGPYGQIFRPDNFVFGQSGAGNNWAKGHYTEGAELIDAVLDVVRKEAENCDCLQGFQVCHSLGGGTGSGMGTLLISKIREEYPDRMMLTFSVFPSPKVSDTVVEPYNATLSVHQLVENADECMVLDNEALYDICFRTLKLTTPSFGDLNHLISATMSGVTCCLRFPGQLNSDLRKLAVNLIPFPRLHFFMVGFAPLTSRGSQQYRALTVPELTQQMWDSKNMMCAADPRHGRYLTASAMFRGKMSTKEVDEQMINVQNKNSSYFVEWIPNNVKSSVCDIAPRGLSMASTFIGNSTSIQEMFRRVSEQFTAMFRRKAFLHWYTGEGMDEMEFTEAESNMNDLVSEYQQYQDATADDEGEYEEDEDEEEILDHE

In experiment [1] the target is T1, …OPEPTIDE-REPEAT THIOREDOXIN-LIKE 3 (TTL3)-GFP, expressed from pTTL3::TTL3-GFP (Arabidopsis thaliana) (UniProt Q9SIN1).
T1 sequence: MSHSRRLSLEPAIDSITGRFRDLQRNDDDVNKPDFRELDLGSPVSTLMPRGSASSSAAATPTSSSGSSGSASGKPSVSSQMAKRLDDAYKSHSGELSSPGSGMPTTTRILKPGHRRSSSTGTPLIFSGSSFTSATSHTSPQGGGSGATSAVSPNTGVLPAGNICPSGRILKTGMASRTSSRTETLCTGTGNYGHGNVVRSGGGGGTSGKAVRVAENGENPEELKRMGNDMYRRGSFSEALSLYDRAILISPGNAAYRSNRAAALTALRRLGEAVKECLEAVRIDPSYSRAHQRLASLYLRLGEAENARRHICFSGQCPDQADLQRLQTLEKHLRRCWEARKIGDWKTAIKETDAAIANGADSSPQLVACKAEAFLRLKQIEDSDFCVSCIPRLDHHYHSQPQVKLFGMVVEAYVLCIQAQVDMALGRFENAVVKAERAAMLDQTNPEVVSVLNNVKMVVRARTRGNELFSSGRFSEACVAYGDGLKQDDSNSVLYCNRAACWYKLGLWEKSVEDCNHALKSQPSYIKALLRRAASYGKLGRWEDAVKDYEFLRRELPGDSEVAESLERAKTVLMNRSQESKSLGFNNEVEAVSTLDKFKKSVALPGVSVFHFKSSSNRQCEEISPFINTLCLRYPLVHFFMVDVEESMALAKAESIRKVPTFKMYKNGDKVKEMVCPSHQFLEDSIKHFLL
Briefly: affinity purification with mass spectrometry.

For experiment [2], the target named is T1, …OPEPTIDE-REPEAT THIOREDOXIN-LIKE 3 (TTL3)-GFP, expressed from pTTL3::TTL3-GFP (Arabidopsis thaliana). Briefly: affinity purification with mass spectrometry. This is another data set of the same source.

Like-named read-outs stand apart in the source and are kept apart here. These are yes or no findings as the source states them, for the method shown. In cells and extracts the contact can be indirect. Here binding means that the protein was enriched with, or labelled near, the bait; the list need not be complete. Where a sequence is shown, tags or fusion partners need not be part of it.

CLC1, endogenous: the binding result in experiment [1] is “binds”.

In the case of “TUB6 (Tubulin 6), endogenous (from UniProt P29514 1-449)”, the binding entry in experiment [1] is “binds”.

B1: PME3 (pectin methyl esterase 3), endogenous (protein, UniProt O49006 36-592)
chain: AGISAGASKANEKRTLSPSSHAVLRSSCSSTRYPELCISAVVTAGGVELTSQKDVIEASVNLTITAVEHNYFTVKKLIKKRKGLTPREKTALHDCLETIDETLDELHETVEDLHLYPTKKTLREHAGDLKTLISSAITNQETCLDGFSHDDADKQVRKALLKGQIHVEHMCSNALAMIKNMTDTDIANFEQKAKITSNNRKLKEENQETTVAVDIAGAGELDSEGWPTWLSAGDRRLLQGSGVKADATVAADGSGTFKTVAAAVAAAPENSNKRYVIHIKAGVYRENVEVAKKKKNIMFMGDGRTRTIITGSRNVVDGSTTFHSATVAAVGERFLARDITFQNTAGPSKHQAVALRVGSDFSAFYNCDMLAYQDTLYVHSNRQFFVKCLIAGTVDFIFGNAAVVLQDCDIHARRPNSGQKNMVTAQGRTDPNQNTGIVIQKCRIGATSDLQSVKGSFPTYLGRPWKEYSQTVIMQSAISDVIRPEGWSEWTGTFALNTLTYREYSNTGAGAGTANRVKWRGFKVITAAAEAQKYTAGQFIGGGGWLSSTGFPFSLGL
In the case of B1, in experiment [2], the binding entry is listed as “binds”.
